Source: article PMC4930613

Assays:
[1] = molecular target: mSNPH-Myc (mouse Syntaphilin, wild type) (mouse); assay: co-IP; lysates of CAD cells transfected with EGFP-mDISC1 and mSNPH-Myc; immunoprecipitated with anti-Myc or anti-GFP, blotted with anti-GFP and anti-Myc; ELB lysis buffer (50 mM Tris pH 8.0, 250 mM NaCl, 0.1 % NP-40, 5 mM EDTA), overnight at 4 °C
[2] = molecular target: mSNPH-Myc (mouse Syntaphilin, wild type) (mouse); assay: co-IP; mitochondrial fraction of CAD cells transfected with mSNPH-Myc and EGFP-mDISC1; ELB lysis buffer, overnight at 4 °C
[3] = molecular target: mSNPH-Myc ∆447–455 (mouse); assay: co-IP; lysates of transfected cells (cell line not stated) with FLAG-mDISC1 and mSNPH-Myc deletion mutants; ELB lysis buffer (50 mM Tris pH 8.0, 250 mM NaCl, 0.1 % NP-40, 5 mM EDTA), overnight at 4 °C
[4] = molecular target: mSNPH-Myc ∆1–86 (mouse); assay: as above
[5] = molecular target: mSNPH-Myc ∆87–159 (mouse); assay: as above
[6] = molecular target: mSNPH-Myc ∆401–495 (mouse); assay: as above
[7] = molecular target: mSNPH-Myc ∆481–495 (mouse); assay: as above

binding [1] | binding [2] | binding [3] | binding [4] | binding [5] | binding [6] | binding [7] | Binder
binds | binds |  |  |  |  |  | EGFP-mDISC1 (mouse Disrupted-in-schizophrenia 1) (protein, UniProt Q811T9 1-852) MQGGGPRGAPIHSPSHGADSGHGLPPAVAPQRRRLTRRPGYMRSTAGSGIGFLSPAVGMPHPSSAGLTGQQSQHSQSKAGQCGLDPGSHCQASLVGKPFLKSSLVPAVASEGHLHPAQRSMRKRPVHFAVHSKNDSRQSERLTGSFKPGDSGFWQELLSSDSFKSLAPSLDAPWNKGSRGLKTVKPLASPALNGPADIASLPGFQDTFTSSFSFIQLSLGAAGERGEAEGCLPSREAEPLHQRPQEMAAEASSSDRPHGDPRHLWTFSLHAAPGLADLAQVTRSSSRQSECGTVSSSSSDTGFSSQDASSAGGRGDQGGGWADAHGWHTLLREWEPMLQDYLLSNRRQLEVTSLILKLQKCQEKVVEDGDYDTAETLRQRLEELEQEKGRLSWALPSQQPALRSFLGYLAAQIQVALHGATQRAGSDDPEAPLEGQLRTTAQDSLPASITRRDWLIREKQRLQKEIEALQARMSALEAKEKRLSQELEEQEVLLRWPGCDLMALVAQMSPGQLQEVSKALGETLTSANQAPFQVEPPETLRSLRERTKSLNLAVRELTAQVCSGEKLCSSLRRRLSDLDTRLPALLEAKMLALSGSCFSTAKELTEEIWALSSEREGLEMFLGRLLALSSRNSRRLGIVKEDHLRCRQDLALQDAAHKTRMKANTVKCMEVLEGQLSSCRCPLLGRVWKADLETCQLLMQSLQLQEAGSSPHAEDEEQVHSTGEAAQTAALAVPRTPHPEEEKSPLQVLQEWDTHSALSPHCAAGPWKEDSHIVSAEVGEKCEAIGVKLLHLEDQLLGAMYSHDEALFQSLQGELQTVKETLQAMILQLQPTKEAGEASASYPTAGAQETEA
 |  | no binding | binds | binds | no binding | no binding | FLAG-mouse DISC1 (FLAG-mDISC1) (protein, UniProt Q811T9 1-852) MQGGGPRGAPIHSPSHGADSGHGLPPAVAPQRRRLTRRPGYMRSTAGSGIGFLSPAVGMPHPSSAGLTGQQSQHSQSKAGQCGLDPGSHCQASLVGKPFLKSSLVPAVASEGHLHPAQRSMRKRPVHFAVHSKNDSRQSERLTGSFKPGDSGFWQELLSSDSFKSLAPSLDAPWNKGSRGLKTVKPLASPALNGPADIASLPGFQDTFTSSFSFIQLSLGAAGERGEAEGCLPSREAEPLHQRPQEMAAEASSSDRPHGDPRHLWTFSLHAAPGLADLAQVTRSSSRQSECGTVSSSSSDTGFSSQDASSAGGRGDQGGGWADAHGWHTLLREWEPMLQDYLLSNRRQLEVTSLILKLQKCQEKVVEDGDYDTAETLRQRLEELEQEKGRLSWALPSQQPALRSFLGYLAAQIQVALHGATQRAGSDDPEAPLEGQLRTTAQDSLPASITRRDWLIREKQRLQKEIEALQARMSALEAKEKRLSQELEEQEVLLRWPGCDLMALVAQMSPGQLQEVSKALGETLTSANQAPFQVEPPETLRSLRERTKSLNLAVRELTAQVCSGEKLCSSLRRRLSDLDTRLPALLEAKMLALSGSCFSTAKELTEEIWALSSEREGLEMFLGRLLALSSRNSRRLGIVKEDHLRCRQDLALQDAAHKTRMKANTVKCMEVLEGQLSSCRCPLLGRVWKADLETCQLLMQSLQLQEAGSSPHAEDEEQVHSTGEAAQTAALAVPRTPHPEEEKSPLQVLQEWDTHSALSPHCAAGPWKEDSHIVSAEVGEKCEAIGVKLLHLEDQLLGAMYSHDEALFQSLQGELQTVKETLQAMILQLQPTKEAGEASASYPTAGAQETEA

No constants are given. Whether binding was seen depends on the method and setting. In cells and extracts the contact can be indirect. For some of these results: Binding can be weak; no strength is given. Sequences can lack the tags named with a protein.
